# Assay results taken from PMC3796546.
# Amino acid sequences for entries named in this document (tags omitted). A change or cut given only in a name is not applied to a line headed by its entry.
# UniProt Q06554: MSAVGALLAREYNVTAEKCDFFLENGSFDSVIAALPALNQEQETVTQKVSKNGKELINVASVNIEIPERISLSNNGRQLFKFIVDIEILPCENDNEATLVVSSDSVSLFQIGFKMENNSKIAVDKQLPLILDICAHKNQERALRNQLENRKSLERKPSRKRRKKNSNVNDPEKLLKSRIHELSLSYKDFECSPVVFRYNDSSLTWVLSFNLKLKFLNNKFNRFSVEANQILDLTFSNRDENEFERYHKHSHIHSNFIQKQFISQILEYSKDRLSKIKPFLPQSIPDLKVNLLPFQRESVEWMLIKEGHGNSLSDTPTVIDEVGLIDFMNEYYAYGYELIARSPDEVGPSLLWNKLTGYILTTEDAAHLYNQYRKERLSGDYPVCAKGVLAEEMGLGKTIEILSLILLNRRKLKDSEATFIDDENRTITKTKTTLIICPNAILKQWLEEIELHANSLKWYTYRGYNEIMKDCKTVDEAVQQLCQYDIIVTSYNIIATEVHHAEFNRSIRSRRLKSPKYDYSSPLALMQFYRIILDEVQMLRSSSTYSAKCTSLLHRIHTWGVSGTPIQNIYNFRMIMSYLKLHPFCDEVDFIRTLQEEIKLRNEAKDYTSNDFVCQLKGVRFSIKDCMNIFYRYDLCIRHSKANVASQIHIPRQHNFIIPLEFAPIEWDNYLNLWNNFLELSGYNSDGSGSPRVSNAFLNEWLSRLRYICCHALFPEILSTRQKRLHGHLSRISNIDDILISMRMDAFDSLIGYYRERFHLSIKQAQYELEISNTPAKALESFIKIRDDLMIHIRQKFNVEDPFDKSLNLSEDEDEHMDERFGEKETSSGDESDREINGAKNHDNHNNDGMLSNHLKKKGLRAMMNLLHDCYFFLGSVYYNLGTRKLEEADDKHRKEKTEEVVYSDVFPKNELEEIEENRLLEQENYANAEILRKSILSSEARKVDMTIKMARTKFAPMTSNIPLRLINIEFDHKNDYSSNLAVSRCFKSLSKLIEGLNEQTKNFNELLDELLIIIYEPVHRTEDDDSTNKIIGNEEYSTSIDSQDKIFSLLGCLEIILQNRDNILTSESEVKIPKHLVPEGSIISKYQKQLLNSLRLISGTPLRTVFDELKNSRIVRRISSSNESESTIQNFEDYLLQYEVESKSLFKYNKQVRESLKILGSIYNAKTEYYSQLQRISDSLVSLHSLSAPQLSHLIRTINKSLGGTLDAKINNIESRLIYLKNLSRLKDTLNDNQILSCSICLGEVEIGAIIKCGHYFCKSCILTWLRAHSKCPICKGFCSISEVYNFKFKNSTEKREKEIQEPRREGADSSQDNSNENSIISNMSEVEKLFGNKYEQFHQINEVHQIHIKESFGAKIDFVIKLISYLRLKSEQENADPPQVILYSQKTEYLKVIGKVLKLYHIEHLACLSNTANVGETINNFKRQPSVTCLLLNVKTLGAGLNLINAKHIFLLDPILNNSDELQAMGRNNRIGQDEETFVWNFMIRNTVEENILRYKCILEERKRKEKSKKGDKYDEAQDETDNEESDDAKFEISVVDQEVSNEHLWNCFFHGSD
# UniProt P25694: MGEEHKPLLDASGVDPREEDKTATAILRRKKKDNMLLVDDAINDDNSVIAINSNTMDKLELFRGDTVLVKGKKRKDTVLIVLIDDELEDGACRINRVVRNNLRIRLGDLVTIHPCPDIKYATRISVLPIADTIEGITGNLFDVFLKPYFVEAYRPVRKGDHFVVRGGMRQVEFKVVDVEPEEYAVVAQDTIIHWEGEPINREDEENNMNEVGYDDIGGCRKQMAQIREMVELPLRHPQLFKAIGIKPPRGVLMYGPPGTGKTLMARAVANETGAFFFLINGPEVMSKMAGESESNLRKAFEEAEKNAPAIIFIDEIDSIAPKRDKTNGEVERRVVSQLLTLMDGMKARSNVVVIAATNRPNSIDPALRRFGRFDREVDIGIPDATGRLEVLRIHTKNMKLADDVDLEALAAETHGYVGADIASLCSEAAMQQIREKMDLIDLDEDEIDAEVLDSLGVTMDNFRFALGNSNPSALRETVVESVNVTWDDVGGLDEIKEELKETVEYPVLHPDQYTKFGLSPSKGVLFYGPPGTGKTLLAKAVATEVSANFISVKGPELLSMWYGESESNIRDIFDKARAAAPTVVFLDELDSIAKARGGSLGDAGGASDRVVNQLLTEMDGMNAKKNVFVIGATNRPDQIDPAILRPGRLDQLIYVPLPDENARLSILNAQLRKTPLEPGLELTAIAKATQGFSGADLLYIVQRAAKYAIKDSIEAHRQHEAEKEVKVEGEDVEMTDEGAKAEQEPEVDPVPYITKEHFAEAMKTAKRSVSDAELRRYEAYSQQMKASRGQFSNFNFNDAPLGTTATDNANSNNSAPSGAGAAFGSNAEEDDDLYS
# UniProt P25491: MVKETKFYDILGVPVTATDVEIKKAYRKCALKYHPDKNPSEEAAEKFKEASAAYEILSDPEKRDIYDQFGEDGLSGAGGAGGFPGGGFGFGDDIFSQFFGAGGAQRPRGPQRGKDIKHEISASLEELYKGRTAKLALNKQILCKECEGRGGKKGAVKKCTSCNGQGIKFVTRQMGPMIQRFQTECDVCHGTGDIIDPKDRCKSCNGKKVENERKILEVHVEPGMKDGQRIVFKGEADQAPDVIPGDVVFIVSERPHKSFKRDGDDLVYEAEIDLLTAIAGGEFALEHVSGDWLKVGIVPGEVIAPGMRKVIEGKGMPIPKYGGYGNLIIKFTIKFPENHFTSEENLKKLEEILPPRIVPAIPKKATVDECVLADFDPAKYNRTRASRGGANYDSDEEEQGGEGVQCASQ
# Experiments:
# [1] = target: 3xHA-Irc20-C1239A RING mutant (S. cerevisiae) (UniProt Q06554); assay: affinity purification with mass spectrometry; cells cross-linked in vivo with 1% formaldehyde for 9 minutes, quenched with 125 mM glycine; anti-HA immunoprecipitation; three replicates; mass spectrometry
# [2] = target: N-terminal 3xHA-tagged wild-type Irc20 (S. cerevisiae) (UniProt Q06554); assay: affinity purification with mass spectrometry; native lysis; 15 mg total yeast lysate on anti-HA agarose beads, 4°C, 2 hours; eluted with HA peptide; three replicates against an untagged Irc20 control; tandem mass spectrometry
binding [1],binding [2],Substance
binds,,"Cdc48 (endogenous, untagged) (from UniProt P25694 1-835)"
,binds,Ydj1 (from UniProt P25491 1-409)

# Results are given in words; binding and its absence hold for the method and conditions named. Binding seen in cells or lysates may run through a third protein. A yes stands for co-enrichment or nearness to the bait. Other partners may have been found.
